According to PubChem BioAssay AID485314 (National Center for Advancing Translational Sciences (NCATS), 2010):
Among all 340,000 compounds or so, about 4,500 (1.3%) were called active. Inconclusive means that the source gave no clear call. Such entries were picked first, then a sample of the others. Calls follow the shape of the dose curve; as a rule, active = well fitted inhibition curve with a large enough effect; inconclusive = small, poorly fitted or top-dose-only effect, or another doubt; inactive = no such curve, though single readings can be large or run the other way. Potencies of inconclusive entries are doubtful fits and often do not repeat.

Target: DNA polymerase beta (Homo sapiens) (UniProt P06746)
Experiment: qHTS Assay for Inhibitors of DNA Polymerase Beta
Details: Pol beta primer extension/strand displacement, fluorescence kinetic; activity change, negative = inhibition: at 114 µM (top of the series)
Method in brief: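 10 nM enzyme + cpd, 15 min RT; start with substrate 50 nM final; read 0 min and after 10 min RT. Corrected, normalized data; 4-parameter Hill curve fit.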
% is scaled to controls: 0 for no effect and ±100 for the full control effect; potency is read from the fitted curve at half-maximal effect.

| SMILES | Potency | activity change, negative = inhibition |
| --- | --- | --- |
| CCN(CC)c1ccc(/C=C/C(=O)c2ccc(Br)cc2)cc1 | inconclusive: 56.2 µM [inhibitor, single point] | – |
| CCOC(=O)c1sc(N2N=C(C)C(N=Nc3cccc(C)c3)C2=O)nc1C (stereo not drawn) | – | inconclusive: -94.5% [inhibitor] |
| O=C(N1CCCCC1)N1CCN(C(=O)N(c2ccccc2)c2ccccc2)CC1 | inconclusive: 89.1 µM [inhibitor, single point] | – |
| COC(=O)/C=C/COc1ccccc1[N+](=O)[O-] | inconclusive: 100 µM [inhibitor, single point] | – |
| COC(=O)c1ccc(CN2CCC(CO)(Cc3ccccc3Cl)CC2)cc1 | inconclusive: 79.4 µM [inhibitor, single point] | – |
| O=C(O)CCC(=O)Nc1ccc2c(c1)Cc1cc(NC(=O)CCC(=O)O)ccc1-2 | active: 44.7 µM | – |
| COC(=O)CCNC(=O)N1CCN(c2nnc(C)c3c(C)n(-c4ccc(Cl)cc4)nc23)CC1 | – | inactive: 17.1% |
| CCNCCNC(=O)c1c(O)c2c([nH]c1=O)CCCC2 | inconclusive: 3.55 µM [inhibitor, full curve, poor fit] | – |
| O=C(COC(=O)c1cc[n+]([O-])cc1)Nc1ccc([N+](=O)[O-])cc1Cl | – | inactive: -1.21% |
| CCc1c(C)sc2c1CCN(C(=O)Nc1ccc(F)c(Cl)c1)C2c1ccc(F)cc1 (stereo not drawn) | – | inactive: -7.77% |
| COc1ccccc1NC(=O)C1=C(C)Nc2nc(SCc3ccccc3)nn2C1c1cccnc1 (stereo not drawn) | inconclusive: 17.8 µM [inhibitor, full curve] | – |
| Cc1ncc([N+](=O)[O-])n1CCOC(=O)NC(Nc1ccc(F)cc1)C(Cl)(Cl)Cl (stereo not drawn) | – | inconclusive: -76.3% [inhibitor] |
| CC(C)NC(=O)C1CCN(C(=O)c2cc3sccc3n2Cc2ccc(Cl)cc2)CC1 | inconclusive: 100 µM [inhibitor, single point] | – |
| CCc1ccc(-n2cccc2/C=C2/C(=N)N3C(=NC2=O)SN=C3S(C)(=O)=O)cc1 | active: 6.31 µM | – |
| Cc1sc(NC(=O)CN2CCOCC2)nc1-c1ccc2c(c1)CCN2S(=O)(=O)c1ccccc1 | inconclusive: 89.1 µM [inhibitor, single point] | – |
| COc1cc(/C=C/c2[nH]c(=O)[nH]c(=O)c2[N+](=O)[O-])cc([N+](=O)[O-])c1O | inconclusive: 28.2 µM [inhibitor, partial curve, poor fit] | – |
| COCCn1c(-c2ccc(F)cc2)nc2oc3cc(OC)ccc3c(=O)c2c1=O | – | inconclusive: -30.6% [inhibitor] |
| CCOC(=O)c1c(C)[nH]c(CCC(=O)Nc2ccc(Cl)cc2C)c1C | inconclusive: 2.82 µM [inhibitor, single point] | – |
| Cc1cc2cc3c(cc2nc1SCC(=O)N1CCN(C(=O)c2ccco2)CC1)OCO3 | inconclusive: 56.2 µM [inhibitor, partial curve] | – |
| COC(=O)c1ccsc1NC(=O)c1ccc(Cl)s1 | inconclusive: 39.8 µM [inhibitor, single point] | – |
| N#C/C(=C\c1ccc(Sc2ccccc2)o1)c1nc2ccccc2[nH]1 | active: 39.8 µM | – |
| COc1ccc(N2CCOCC2)c(NC(=O)c2cccnc2)c1 | – | inconclusive: -33.8% [inhibitor] |
| Cc1cc(C)cc(NC(=O)C2CCN(S(=O)(=O)c3ccc4[nH]c(=O)ccc4c3)CC2)c1 | inconclusive: 35.5 µM [inhibitor, single point] | – |

5 structures from above, sorted by molar mass, low to high.

| SMILES | Potency | activity change, negative = inhibition |
| --- | --- | --- |
| COC(=O)c1ccsc1NC(=O)c1ccc(Cl)s1 | inconclusive: 39.8 µM [inhibitor, single point] | – |
| O=C(N1CCCCC1)N1CCN(C(=O)N(c2ccccc2)c2ccccc2)CC1 | inconclusive: 89.1 µM [inhibitor, single point] | – |
| COCCn1c(-c2ccc(F)cc2)nc2oc3cc(OC)ccc3c(=O)c2c1=O | – | inconclusive: -30.6% [inhibitor] |
| CCc1c(C)sc2c1CCN(C(=O)Nc1ccc(F)c(Cl)c1)C2c1ccc(F)cc1 (stereo not drawn) | – | inactive: -7.77% |
| Cc1sc(NC(=O)CN2CCOCC2)nc1-c1ccc2c(c1)CCN2S(=O)(=O)c1ccccc1 | inconclusive: 89.1 µM [inhibitor, single point] | – |

(more compounds)

| SMILES | Potency | activity change, negative = inhibition |
| --- | --- | --- |
| CCOC(=O)CN1C(=O)S/C(=C\c2ccc(-c3ccc(C(=O)O)c(Cl)c3)o2)C1=O | inconclusive: 89.1 µM [inhibitor, single point] | – |
| COCN(C#N)c1nc(N(C)C)nc(N(C)C)n1 | – | inactive: -0.569% |
| Cc1cc(C)c(S(=O)(=O)c2c(C)cccc2C)c(Cl)n1 | – | inactive: 29.4% |
| CC(C)(C)SC(=O)C[C@@H]1NS(=O)(=O)OC2CCCCC21 (stereo partly drawn) | inconclusive: 100 µM [inhibitor, single point] | – |
| CCc1ccc(N(C)S(=O)(=O)c2ccc3[nH]cc(C(=O)NCC4CCCO4)c(=O)c3c2)cc1 (stereo not drawn) | inconclusive: 89.1 µM [inhibitor, single point] | – |
| Cc1cc(OCc2cc(C(=O)N(C)CCc3cnn(C)c3)no2)cc(C)c1Cl | inconclusive: 79.4 µM [inhibitor, single point] | – |
| CC(=O)Nc1ccc(Nc2nnc(-c3ccc(C)c(S(=O)(=O)NCCO)c3)c3ccccc23)cc1 | inconclusive: 44.7 µM [inhibitor, single point] | – |
| COc1cccc(C(=O)N2CCN(Cc3ccc(OC)cc3OC)CC2)c1 | – | inactive: 2.41% |
| c1ccc(-c2nccc(-c3ccc4c(c3)OCO4)n2)cc1 | inconclusive: 3.98 µM [inhibitor, single point] | – |
| N=C1/C(=C/c2ccc(-c3cccc(C(=O)O)c3)o2)C(=O)N=C2SC=C(c3ccccc3)N12 | active: 28.2 µM | – |
| CN(C)c1ccc(N=Nc2ccc(C(=O)O)cc2)cc1 | active: 10 µM | – |
| Fc1ccc(F)c(C2=NNC(=Nc3ccccc3F)SC2)c1 | inconclusive: 89.1 µM [inhibitor, single point] | – |
| Cc1ccc(NC(=O)C[n+]2ccn(C3=C([O-])c4ccccc4C3=O)c2)cc1 | inconclusive: 35.5 µM [inhibitor, full curve] | – |
| CCOc1ccc(NC(=O)CN2C(=O)C3(SCC(=O)N3c3ccc(F)cc3)c3ccccc32)cc1 (stereo not drawn) | – | inactive: 1.84% |
| O=C(Cc1ccc([N+](=O)[O-])cc1)N/N=C/c1ccc([N+](=O)[O-])o1 | – | inactive: -12.6% |
| O=C(CC1Sc2ccccc2NC1=O)Nc1cccc(C(=O)O)c1 (stereo not drawn) | active: 20 µM | – |
| CCN(CC)c1ccc(/C=N/NC(=O)c2ccc3nc[nH]c3c2)c(O)c1 | – | inconclusive: -57.6% [inhibitor] |
| COc1ccc(NC(=O)Cn2cnc3ccccc3c2=O)cc1OC | inconclusive: 63.1 µM [inhibitor, single point] | – |
| O=C(NCCc1ccccn1)c1cccnc1Oc1ccc(Cl)cc1 | inconclusive: 4.47 µM [inhibitor, single point] | – |
| NS(=O)(=O)c1ccc(N2C(=O)C3C4CC(C(Br)C4Br)C3C2=O)cc1 (stereo not drawn) | inconclusive: 89.1 µM [inhibitor, single point] | – |
| CN(C)c1ccc(C(=O)/C=C/c2ccco2)cc1 | inconclusive: 35.5 µM [inhibitor, full curve] | – |
| CC(=O)N1CCc2cc(S(=O)(=O)NC(Cc3ccccc3)C(=O)Nc3ccc(Cl)cc3)ccc21 (stereo not drawn) | – | inactive: -0.123% |

| SMILES | Potency | activity change, negative = inhibition |
| --- | --- | --- |
| Cc1onc(-c2ccc(Cl)cc2Cl)c1C(=O)/C=C/N(C)C | inconclusive: 50.1 µM [inhibitor, single point] | – |
| COc1ccc(CNC(=O)[C@H](C)NC(=O)C2CCN(S(=O)(=O)c3ccc(C)cc3)CC2)cc1 | inconclusive: 56.2 µM [inhibitor, partial curve, poor fit] | – |
| Cc1ccccc1NC(=O)C1CCN(S(=O)(=O)c2ccc3c(c2)NC(=O)C(C)S3)CC1 (stereo not drawn) | inconclusive: 1.41 µM [inhibitor, single point] | – |
| COc1ccc(Oc2nc(-c3ccccn3)ncc2OC)cc1 | – | inactive: 17.6% |
| O=C(CSc1nnc(-c2ccc(C(F)(F)F)cn2)o1)Nc1cccc(Cl)c1 | inconclusive: 2.82 µM [inhibitor, full curve, poor fit] | – |
| CCOC(=O)C1CCN(C(=O)C2CCC(=O)N(CC3CCCCC3)C2)CC1 (stereo not drawn) | – | inactive: 10.4% |
| CCc1ccc(NC(=O)NNC(=O)c2cc3ccccc3cc2O)cc1 | inconclusive: 89.1 µM [inhibitor, single point] | – |
| Cc1cc(C)cc(N2C(=O)CCN(Cc3ccccc3)C2=O)c1 | inconclusive: 1.78 µM [inhibitor, partial curve, poor fit] | – |
| Cc1cccc(Nc2c3c(nc4nncn24)CCC3)c1C | – | inactive: 15.4% |
| O=C(OC1CCCCC1=O)c1cc(=O)c2ccccc2o1 (stereo not drawn) | inconclusive: 89.1 µM [inhibitor, single point] | – |
| COc1cccc(N2CCN(C(=O)c3ccc(CS(=O)c4ccc(Cl)cc4)o3)CC2)c1 (stereo not drawn) | inconclusive: 0.562 µM [inhibitor, full curve, poor fit] | – |
| O=S(=O)(Nc1ccc(Cl)cc1)c1cccc(S(=O)(=O)c2ccc(Cl)c(Cl)c2)c1 | – | inactive: -8.88% |
| Cc1ccc(C)c(N2CCN(CCCNC(=O)Nc3ccc(Cl)cc3)CC2)c1 | inconclusive: 39.8 µM [inhibitor, partial curve, poor fit] | – |
| COc1ccc(/C=N/Nc2ncc(-c3ccccc3)cn2)c(OC)c1 | inconclusive: 12.6 µM [inhibitor, partial curve] | – |
| N=C1S/C(=C\c2ccc(-c3ccccc3C(=O)O)o2)C(=O)N1c1ccc2c(c1)OCO2 | active: 25.1 µM | – |
| Cc1ccc(NC(=O)Nc2cnc3ccccc3c2)cc1 | active: 20 µM | – |
| CCN(CC)C(=O)Cn1cc(SCC(=O)NCc2ccco2)c2ccccc21 | inconclusive: 25.1 µM [inhibitor, full curve, poor fit] | – |
| COc1ccc(CCN2C(=O)CC(NNc3ccc([N+](=O)[O-])cc3)C2=O)cc1OC (stereo not drawn) | inconclusive: 25.1 µM [inhibitor, full curve, poor fit] | – |
| Cc1nc2c(c(=O)n1CCC1=CCCCC1)c1nc3ccccc3nc1n2/N=C/c1ccco1 | active: 10 µM | – |
| CCCCCCCCCn1ccc(=N)cc1 | inconclusive: 0.282 µM [inhibitor, full curve] | – |
| CCOC(=O)c1c(S(=O)(=O)N2CCC(C(=O)Nc3cccc(C)n3)CC2)c(C)n(C)c1C | – | inactive: 9.78% |
| CCc1ccc2nc(N3C(=O)C(O)=C(C(=O)c4ccco4)C3c3cccs3)sc2c1 (stereo not drawn) | inconclusive: 22.4 µM [inhibitor, single point] | – |
